Data on 1 molecule can be found in PMC9324337.

By UniProt entry, the sequences of proteins in these tests, tags left out.
UniProt Q04206: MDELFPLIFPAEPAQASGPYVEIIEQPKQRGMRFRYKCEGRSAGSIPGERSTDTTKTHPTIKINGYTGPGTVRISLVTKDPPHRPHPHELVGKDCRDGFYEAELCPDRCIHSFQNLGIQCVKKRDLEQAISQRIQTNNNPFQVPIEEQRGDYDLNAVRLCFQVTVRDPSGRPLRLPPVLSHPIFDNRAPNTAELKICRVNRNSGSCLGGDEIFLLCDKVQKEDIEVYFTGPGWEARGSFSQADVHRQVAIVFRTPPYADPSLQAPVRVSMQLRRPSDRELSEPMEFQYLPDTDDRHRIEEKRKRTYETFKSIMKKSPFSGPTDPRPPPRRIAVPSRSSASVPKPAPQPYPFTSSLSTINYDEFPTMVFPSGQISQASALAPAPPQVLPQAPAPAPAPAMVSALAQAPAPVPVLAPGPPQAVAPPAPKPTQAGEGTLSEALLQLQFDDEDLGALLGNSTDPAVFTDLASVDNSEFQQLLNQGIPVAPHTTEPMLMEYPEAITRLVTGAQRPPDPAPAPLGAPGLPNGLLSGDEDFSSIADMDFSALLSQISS

These are yes or no findings as the source states them, for the method shown. In cells and extracts the contact can be indirect. Some entries that bind do so weakly or less than the wild type.

In the assay the target is NF-κB RelA (p65) (human (endogenous in THP-1)) (UniProt Q04206). In words: co-IP; IP with p65 antibody (D14E12) on protein G beads, overnight at 4 °C, washed three times in PBS; blot with anti-p52; nuclear extracts of untreated Mϕ macrophages and of TAMs (treated with tumor-conditioned medium); control normal rabbit IgG; n = 3.

B1: NF-κB p52 (protein, UniProt Q00653 1-454)
chain: MESCYNPGLDGIIEYDDFKLNSSIVEPKEPAPETADGPYLVIVEQPKQRGFRFRYGCEGPSHGGLPGASSEKGRKTYPTVKICNYEGPAKIEVDLVTHSDPPRAHAHSLVGKQCSELGICAVSVGPKDMTAQFNNLGVLHVTKKNMMGTMIQKLQRQRLRSRPQGLTEAEQRELEQEAKELKKVMDLSIVRLRFSAFLRASDGSFSLPLKPVISQPIHDSKSPGASNLKISRMDKTAGSVRGGDEVYLLCDKVQKDDIEVRFYEDDENGWQAFGDFSPTDVHKQYAIVFRTPPYHKMKIERPVTVFLQLKRKRGGDVSDSKQFTYYPLVEDKEEVQRKRRKALPTFSQPFGGGSHMGGGSGGAAGGYGGAGGGGSLGFFPSSLAYSPYQSGAGPMGCYPGGGGGAQMAATVPSRDSGEEAAEPSAPSRTPQCEPQAPEMLQRAREYNARLFGLA
Turning to B1, the binding result is given as “binds”.
